# The list shows a part of the results.
# B1: Gs78B-bfa-542-29-542 (Bacteroides fragilis) (protein)
# chain: SEDINRNPLLPTKEDEKMDGVIYGAYLPNLEKSVIPIGTASESTEPVNRYQIGVNLAGDAWAGYMSPRDNKFNGSKNFTNYFMYENWVNYVYSFMVTDVYSPWMQIKRISQDEGTRNDEIYALAQIIKIAALHRTTDMFGPIPYSQVGKGSFKVAYDSQESVYRSFLKELEEAVQTLDDYSNKSKEVLPAFDIVYNGDVNKWMRFANSLMLRLAIRVRFADAGLAKEYAEKAVKHPAGLINSKELAAQMGKGAGLQMKNPLKVINEEYNDTRMGATIYSYLAGYNDARAAVYFVKNNGFKAVRCGIAKSGDAYNGFTRPNVHEDDPLYWMKASEVCFLKAEGALAGFDMGGSAGDFYNAGIRMSFSENGLDNSSAETYLKDSTRKPANYTDTSNGELSANAPSSITIRWENGATEEEKLERIITQKYLAIFPNGQEAWTEWRRTGYPRQIVVAENKTNSAVLIGNGYDLGGVRRLPYPRTEYEQNGENLHNAISQYLGGVDNAATKVWWDKKSK
# Key:
# Assay in all cases: glycan array binding signal (z-score within array); higher = stronger binding
# Conditions in all cases: glycan notation: IUPAC condensed, linker removed
# [1] = biological target: Neu5Ac(a2-6)Gal(b1-4)GlcNAc(b1-6)GalNAc
# Procedure, shortened: (§1)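 From the Consortium for Functional Glycomics database, 3228 arrays were curated, keeping only those whose protein sequence was available. Binding is given as a within-array Z-score averaged across arrays sharing a protein sequence and across linkers. Negative Z-scores can be read as non-binding.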
# [2] = biological target: Neu5Ac(a2-6)Gal(b1-4)GlcNAc(b1-6)[Gal(b1-3)GlcNAc(b1-3)]Gal(b1-4)Glc
# Procedure, shortened: as §1
# [3] = biological target: Neu5Ac(a2-6)Gal(b1-4)GlcNAc(b1-6)[Gal(b1-3)]GalNAc
# Procedure, shortened: as §1
# [4] = biological target: Neu5Ac(a2-6)Gal(b1-4)GlcNAc6S
# Procedure, shortened: as §1
# Neu5Ac(a2-6)GalNAc = biological target: Neu5Ac(a2-6)GalNAc
# Procedure, shortened: as §1
# [5] = biological target: Neu5Ac(a2-6)GalNAc(b1-4)GlcNAc
# Procedure, shortened: as §1
# [6] = biological target: Neu5Ac(a2-6)GalNAc(b1-4)GlcNAc6S
# Procedure, shortened: as §1
# [7] = biological target: Neu5Ac(a2-6)GlcNAc(b1-4)GlcNAc
# Procedure, shortened: as §1
# [8] = biological target: Neu5Ac(a2-6)GlcNAc(b1-4)GlcNAc(b1-4)GlcNAc
# Procedure, shortened: as §1
# Neu5Ac(a2-8)Neu5Ac = biological target: Neu5Ac(a2-8)Neu5Ac
# Procedure, shortened: as §1
# [9] = biological target: Neu5Ac(a2-8)Neu5Ac(a2-3)Gal(b1-3)GalNAc(b1-4)[Neu5Ac(a2-3)]Gal(b1-4)Glc
# Procedure, shortened: as §1
# [10] = biological target: Neu5Ac(a2-8)Neu5Ac(a2-3)Gal(b1-3)GalNAc(b1-4)[Neu5Ac(a2-8)Neu5Ac(a2-3)]Gal(b1-4)Glc
# Procedure, shortened: as §1
# [11] = biological target: Neu5Ac(a2-8)Neu5Ac(a2-3)Gal(b1-4)Glc
# Procedure, shortened: as §1
# [12] = biological target: Neu5Ac(a2-8)Neu5Ac(a2-3)Gal(b1-4)GlcNAc
# Procedure, shortened: as §1
# [13] = biological target: Neu5Ac(a2-8)Neu5Ac(a2-3)[Gal(b1-3)GalNAc(b1-4)]Gal(b1-4)Glc
# Procedure, shortened: as §1
# [14] = biological target: Neu5Ac(a2-8)Neu5Ac(a2-3)[GalNAc(b1-4)]Gal(b1-4)Glc
# Procedure, shortened: as §1
# [15] = biological target: Neu5Ac(a2-8)Neu5Ac(a2-8)Neu5Ac
# Procedure, shortened: as §1
# [16] = biological target: Neu5Ac(a2-8)Neu5Ac(a2-8)Neu5Ac(a2-3)Gal(b1-4)Glc
# Procedure, shortened: as §1
# [17] = biological target: Neu5Ac(a2-8)Neu5Ac(a2-8)Neu5Ac(a2-3)[Gal(b1-3)GalNAc(b1-4)]Gal(b1-4)Glc
# Procedure, shortened: as §1
# [18] = biological target: Neu5Ac(a2-8)Neu5Ac(a2-8)Neu5Ac(a2-3)[GalNAc(b1-4)]Gal(b1-4)Glc
# Procedure, shortened: as §1
# [19] = biological target: Neu5Ac(a2-8)Neu5Ac(a2-8)Neu5Ac(a2-8)Neu5Ac(a2-3)[GalNAc(b1-4)]Gal(b1-4)Glc
# Procedure, shortened: as §1
# [20] = biological target: Neu5Ac(a2-8)Neu5Gc(a2-3)Gal(b1-4)GlcNAc
# Procedure, shortened: as §1
# [21] = biological target: Neu5Ac(b2-6)Gal(b1-4)GlcNAc
# Procedure, shortened: as §1
# Neu5Ac(b2-6)GalNAc = biological target: Neu5Ac(b2-6)GalNAc
# Procedure, shortened: as §1
# [22] = biological target: Neu5Ac9Ac(a2-3)Gal(b1-3)GlcNAc
# Procedure, shortened: as §1
# [23] = biological target: Neu5Ac9Ac(a2-3)Gal(b1-4)GlcNAc
# Procedure, shortened: as §1
# [24] = biological target: Neu5Ac9Ac(a2-6)Gal(b1-4)GlcNAc
# Procedure, shortened: as §1
# [25] = biological target: Neu5Gc(a2-3)Gal(b1-3)GlcNAc
# Procedure, shortened: as §1
# [26] = biological target: Neu5Gc(a2-3)Gal(b1-3)[Fuc(a1-4)]GlcNAc
# Procedure, shortened: as §1
# Neu5Gc(a2-3)Gal(b1-4)Glc = biological target: Neu5Gc(a2-3)Gal(b1-4)Glc
# Procedure, shortened: as §1
# [27] = biological target: Neu5Gc(a2-3)Gal(b1-4)GlcNAc
# Procedure, shortened: as §1
# [28] = biological target: Neu5Gc(a2-3)Gal(b1-4)GlcNAc(b1-3)Gal(b1-4)GlcNAc(b1-2)Man(a1-3)[Neu5Gc(a2-3)Gal(b1-4)GlcNAc(b1-3)Gal(b1-4)GlcNAc(b1-2)Man(a1-6)]Man(b1-4)GlcNAc(b1-4)GlcNAc
# Procedure, shortened: as §1
# [29] = biological target: Neu5Gc(a2-3)Gal(b1-4)[Fuc(a1-3)]GlcNAc
# Procedure, shortened: as §1
# [30] = biological target: Neu5Gc(a2-6)Gal(b1-4)GlcNAc
# Procedure, shortened: as §1
# Neu5Gc(a2-6)GalNAc = biological target: Neu5Gc(a2-6)GalNAc
# Procedure, shortened: as §1
# [31] = biological target: Neu5Gc(a2-8)Neu5Ac(a2-3)Gal(b1-4)GlcNAc
# Procedure, shortened: as §1
# [32] = biological target: Neu5Gc(a2-8)Neu5Gc(a2-3)Gal(b1-4)GlcNAc
# Procedure, shortened: as §1
# [33] = biological target: Neu5Gc(a2-8)Neu5Gc(a2-3)Gal(b1-4)GlcNAc(b1-3)Gal(b1-4)GlcNAc
# Procedure, shortened: as §1
binder,measurement,setting,value
B1,glycan array binding signal (z-score),[1],0.134
same,glycan array binding signal (z-score),[2],0.132
same,glycan array binding signal (z-score),[3],-0.779
same,glycan array binding signal (z-score),[4],-0.838
same,glycan array binding signal (z-score),Neu5Ac(a2-6)GalNAc,-0.827
same,glycan array binding signal (z-score),[5],-0.845
same,glycan array binding signal (z-score),[6],-0.619
same,glycan array binding signal (z-score),[7],-0.841
same,glycan array binding signal (z-score),[8],-0.817
same,glycan array binding signal (z-score),Neu5Ac(a2-8)Neu5Ac,-0.763
same,glycan array binding signal (z-score),[9],-0.763
same,glycan array binding signal (z-score),[10],0.648
same,glycan array binding signal (z-score),[11],-0.855
same,glycan array binding signal (z-score),[12],-0.713
same,glycan array binding signal (z-score),[13],-0.064
same,glycan array binding signal (z-score),[14],-0.28
same,glycan array binding signal (z-score),[15],-0.755
same,glycan array binding signal (z-score),[16],-0.617
same,glycan array binding signal (z-score),[17],-0.843
same,glycan array binding signal (z-score),[18],-0.443
same,glycan array binding signal (z-score),[19],1.92
same,glycan array binding signal (z-score),[20],-0.853
same,glycan array binding signal (z-score),[21],-0.689
same,glycan array binding signal (z-score),Neu5Ac(b2-6)GalNAc,-0.685
same,glycan array binding signal (z-score),[22],-0.668
same,glycan array binding signal (z-score),[23],-0.798
same,glycan array binding signal (z-score),[24],-0.811
same,glycan array binding signal (z-score),[25],-0.849
same,glycan array binding signal (z-score),[26],-0.452
same,glycan array binding signal (z-score),Neu5Gc(a2-3)Gal(b1-4)Glc,-0.797
same,glycan array binding signal (z-score),[27],-0.836
same,glycan array binding signal (z-score),[28],-0.45
same,glycan array binding signal (z-score),[29],0.283
same,glycan array binding signal (z-score),[30],-0.619
same,glycan array binding signal (z-score),Neu5Gc(a2-6)GalNAc,0.266
same,glycan array binding signal (z-score),[31],-0.824
same,glycan array binding signal (z-score),[32],-0.835
same,glycan array binding signal (z-score),[33],-0.842

# 10 entries from above, with bars between the fields.
binder | measurement | setting | value
B1 | glycan array binding signal (z-score) | [12] | -0.713
same | glycan array binding signal (z-score) | [13] | -0.064
same | glycan array binding signal (z-score) | [14] | -0.28
same | glycan array binding signal (z-score) | [15] | -0.755
same | glycan array binding signal (z-score) | [16] | -0.617
same | glycan array binding signal (z-score) | [17] | -0.843
same | glycan array binding signal (z-score) | [18] | -0.443
same | glycan array binding signal (z-score) | [19] | 1.92
same | glycan array binding signal (z-score) | [20] | -0.853
same | glycan array binding signal (z-score) | [21] | -0.689

# From the supplement of paper PMC8728848
